Laboratory results: publication PMC7083938
No constants are given. Whether binding was seen depends on the method and setting. One block for each binder: values may come before it.

Experiments:
[1] = biological target: hRobo3 ectodomain (human) (UniProt Q96MS0); assay: SEC-MALS; Superose 6 Increase 10/300 in HBS (10 mM HEPES pH 7.2, 150 mM NaCl), Wyatt HELEOS II; both purified
[2] = biological target: hRobo3 ectodomain (human) (UniProt Q96MS0); assay: SEC-SAXS; Superose 6 Increase 10/300 in HBS at APS BioCAT beamline 18; molecular weight from the scattering; both purified
[3] = biological target: human Robo3 ectodomain (human) (UniProt Q96MS0); assay: SAXS; SEC-coupled SAXS, Superose 6 Increase 10/300 in HBS, APS beamline 18 (Bio-CAT); samples injected at 10–30 µM (hRobo3 ectodomain, hNELL2) or ~1 mg protein; molecular weight by the Vc method; both purified
[4] = biological target: human Robo3 ectodomain (human) (UniProt Q96MS0); assay: SEC-MALS; Wyatt HELEOS II coupled to an AKTA FPLC, Superose Increase 6 10/300, HBS; Zimm model; both purified
[5] = biological target: T1, mouse Robo3 ectodomain (mouse) (UniProt Q9Z2I4); assay: SEC; oligomeric state of single purified proteins by elution volume; HBS; both purified
T1 sequence (chain, biotin (NHS-Biotin) where captured on the SA chip for SPR): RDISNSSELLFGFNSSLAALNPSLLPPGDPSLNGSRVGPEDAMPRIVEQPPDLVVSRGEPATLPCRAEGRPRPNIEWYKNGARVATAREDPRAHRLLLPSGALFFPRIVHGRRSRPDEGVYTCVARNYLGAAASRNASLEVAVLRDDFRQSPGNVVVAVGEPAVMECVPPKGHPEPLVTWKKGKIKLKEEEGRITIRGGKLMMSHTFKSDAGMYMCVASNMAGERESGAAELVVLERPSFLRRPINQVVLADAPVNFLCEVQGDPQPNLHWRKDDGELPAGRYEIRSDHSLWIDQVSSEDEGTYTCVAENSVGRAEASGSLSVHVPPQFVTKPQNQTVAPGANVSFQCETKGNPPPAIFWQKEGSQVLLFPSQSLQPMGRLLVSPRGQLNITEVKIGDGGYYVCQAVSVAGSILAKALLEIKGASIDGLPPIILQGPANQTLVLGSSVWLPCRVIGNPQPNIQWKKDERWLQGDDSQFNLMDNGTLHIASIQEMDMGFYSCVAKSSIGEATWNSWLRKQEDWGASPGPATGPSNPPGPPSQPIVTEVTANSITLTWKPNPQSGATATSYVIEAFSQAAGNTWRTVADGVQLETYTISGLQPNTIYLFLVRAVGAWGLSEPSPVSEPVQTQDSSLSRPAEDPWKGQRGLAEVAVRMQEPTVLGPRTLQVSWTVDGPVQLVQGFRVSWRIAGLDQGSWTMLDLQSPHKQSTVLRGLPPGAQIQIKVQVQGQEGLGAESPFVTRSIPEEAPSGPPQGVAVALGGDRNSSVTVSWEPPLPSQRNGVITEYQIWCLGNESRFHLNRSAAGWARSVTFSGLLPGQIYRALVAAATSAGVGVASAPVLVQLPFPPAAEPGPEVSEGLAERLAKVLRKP

[6] = biological target: T1, mouse Robo3 ectodomain (mouse); assay: AUC; sedimentation velocity, 20 °C, c(s) analysis in SEDFIT; single concentration 2.5 µM mRobo1 and 1.8 µM mRobo3 at 200,000 g, and concentration series (mRobo3 up to 20 µM); both purified

- binding [1]: no binding
- binding [2]: no binding
B1: hRobo3 ectodomain (domain or fragment, UniProt Q96MS0 21-891)
chain: GDISNSSELLLGFNSSLAALNHTLLPPGDPSLNGSRVGPEDAMPRIVEQPPDLLVSRGEPATLPCRAEGRPRPNIEWYKNGARVATVREDPRAHRLLLPSGALFFPRIVHGRRARPDEGVYTCVARNYLGAAASRNASLEVAVLRDDFRQSPGNVVVAVGEPAVLECVPPRGHPEPSVSWRKDGARLKEEEGRITIRGGKLMMSHTLKSDAGMYVCVASNMAGERESAAAEVMVLERPSFLRRPVNQVVLADAPVTFLCEVKGDPPPRLRWRKEDGELPTGRYEIRSDHSLWIGHVSAEDEGTYTCVAENSVGRAEASGSLSVHVPPQLVTQPQDQMAAPGESVAFQCETKGNPPPAIFWQKEGSQVLLFPSQSLQPTGRFSVSPRGQLNITAVQRGDAGYYVCQAVSVAGSILAKALLEIKGASLDGLPPVILQGPANQTLVLGSSVWLPCRVTGNPQPSVRWKKDGQWLQGDDLQFKTMANGTLYIANVQEMDMGFYSCVAKSSTGEATWSGWLKMREDWGVSPDPPTEPSSPPGAPSQPVVTEITKNSITLTWKPNPQTGAAVTSYVIEAFSPAAGNTWRTVADGVQLETHTVSGLQPNTIYLFLVRAVGAWGLSEPSPVSEPVRTQDSSPSRPVEDPWRGQQGLAEVAVRLQEPIVLGPRTLQVSWTVDGPVQLVQGFRVSWRVAGPEGGSWTMLDLQSPSQQSTVLRGLPPGTQIQIKVQAQGQEGLGAESLSVTRSIPEEAPSGPPQGVAVALGGDGNSSITVSWEPPLPSQQNGVITEYQIWCLGNESRFHLNRSAAGWARSAMLRGLVPGLLYRTLVAAATSAGVGVPSAPVLVQLPSPPDLEPGLEVGAGLAVRLARVLREP

- binding [4]: no binding
B2: human Robo3 ectodomain (domain or fragment, UniProt Q96MS0 21-891)
chain: GDISNSSELLLGFNSSLAALNHTLLPPGDPSLNGSRVGPEDAMPRIVEQPPDLLVSRGEPATLPCRAEGRPRPNIEWYKNGARVATVREDPRAHRLLLPSGALFFPRIVHGRRARPDEGVYTCVARNYLGAAASRNASLEVAVLRDDFRQSPGNVVVAVGEPAVLECVPPRGHPEPSVSWRKDGARLKEEEGRITIRGGKLMMSHTLKSDAGMYVCVASNMAGERESAAAEVMVLERPSFLRRPVNQVVLADAPVTFLCEVKGDPPPRLRWRKEDGELPTGRYEIRSDHSLWIGHVSAEDEGTYTCVAENSVGRAEASGSLSVHVPPQLVTQPQDQMAAPGESVAFQCETKGNPPPAIFWQKEGSQVLLFPSQSLQPTGRFSVSPRGQLNITAVQRGDAGYYVCQAVSVAGSILAKALLEIKGASLDGLPPVILQGPANQTLVLGSSVWLPCRVTGNPQPSVRWKKDGQWLQGDDLQFKTMANGTLYIANVQEMDMGFYSCVAKSSTGEATWSGWLKMREDWGVSPDPPTEPSSPPGAPSQPVVTEITKNSITLTWKPNPQTGAAVTSYVIEAFSPAAGNTWRTVADGVQLETHTVSGLQPNTIYLFLVRAVGAWGLSEPSPVSEPVRTQDSSPSRPVEDPWRGQQGLAEVAVRLQEPIVLGPRTLQVSWTVDGPVQLVQGFRVSWRVAGPEGGSWTMLDLQSPSQQSTVLRGLPPGTQIQIKVQAQGQEGLGAESLSVTRSIPEEAPSGPPQGVAVALGGDGNSSITVSWEPPLPSQQNGVITEYQIWCLGNESRFHLNRSAAGWARSAMLRGLVPGLLYRTLVAAATSAGVGVPSAPVLVQLPSPPDLEPGLEVGAGLAVRLARVLREP
- binding [3]: no binding (tested: injected at 10–30 µM)

- binding [5]: no binding
B3: mouse Robo3 ectodomain (domain or fragment, UniProt Q9Z2I4 21-891)
chain: RDISNSSELLFGFNSSLAALNPSLLPPGDPSLNGSRVGPEDAMPRIVEQPPDLVVSRGEPATLPCRAEGRPRPNIEWYKNGARVATAREDPRAHRLLLPSGALFFPRIVHGRRSRPDEGVYTCVARNYLGAAASRNASLEVAVLRDDFRQSPGNVVVAVGEPAVMECVPPKGHPEPLVTWKKGKIKLKEEEGRITIRGGKLMMSHTFKSDAGMYMCVASNMAGERESGAAELVVLERPSFLRRPINQVVLADAPVNFLCEVQGDPQPNLHWRKDDGELPAGRYEIRSDHSLWIDQVSSEDEGTYTCVAENSVGRAEASGSLSVHVPPQFVTKPQNQTVAPGANVSFQCETKGNPPPAIFWQKEGSQVLLFPSQSLQPMGRLLVSPRGQLNITEVKIGDGGYYVCQAVSVAGSILAKALLEIKGASIDGLPPIILQGPANQTLVLGSSVWLPCRVIGNPQPNIQWKKDERWLQGDDSQFNLMDNGTLHIASIQEMDMGFYSCVAKSSIGEATWNSWLRKQEDWGASPGPATGPSNPPGPPSQPIVTEVTANSITLTWKPNPQSGATATSYVIEAFSQAAGNTWRTVADGVQLETYTISGLQPNTIYLFLVRAVGAWGLSEPSPVSEPVQTQDSSLSRPAEDPWKGQRGLAEVAVRMQEPTVLGPRTLQVSWTVDGPVQLVQGFRVSWRIAGLDQGSWTMLDLQSPHKQSTVLRGLPPGAQIQIKVQVQGQEGLGAESPFVTRSIPEEAPSGPPQGVAVALGGDRNSSVTVSWEPPLPSQRNGVITEYQIWCLGNESRFHLNRSAAGWARSVTFSGLLPGQIYRALVAAATSAGVGVASAPVLVQLPFPPAAEPGPEVSEGLAERLAKVLRKP
modifications: biotin (NHS-Biotin) where captured on the SA chip for SPR
- binding [6]: no binding (tested: 1.8 µM; concentration series up to 20 µM)
